The list shows only some results of the screen, not a fair sample: it gathers tests that were run many times, whatever their T/C, doses with no T/C, and many T/C values between a quarter and a half above the control. Other doses and runs of a compound stand elsewhere. T/C: endpoint of the treated group in % of that of the vehicle group. Schedule codes are those of the source, read here as Q, the interval in days (D) or hours (H), X, the number of doses. Some T/C values carry the count of animals alive at the toxicity check (mostly the fifth day); without a count, all were alive then. Some doses have a count of surviving animals in place of a T/C: the source holds a T/C of zero for them, seemingly a mark for toxic or unscored doses. Counts of survivors are from the toxicity check (mostly the fifth day) where no day follows; animals may have died later. Some doses were run more than once; their values stand side by side, smallest first.
System: CD8F1 mice, subcutaneous mammary adenocarcinoma, T/C%
Experiment: NCI In Vivo Anticancer Drug Screen. Data for tumor model Mammary Adenocarcinoma CD8F1 (subcutaneous) in CD8F1
Settings: higher T/C = larger tumour
Method in brief: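 Compound-treated versus vehicle-treated mice with transplantable tumors; survival or tumor size compared as T/C.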

[1] = T/C endpoint: median tumor weight change, dose: 250.0 mg/kg/injection, schedule: Q01DX001 (ip), vehicle: saline with Tween-80
[2] = T/C endpoint: median tumor weight change, dose: 500.0 mg/kg/injection, schedule: Q01DX001 (ip), vehicle: saline with Tween-80
[3] = T/C endpoint: median tumor weight change, dose: 1000.0 mg/kg/injection, schedule: Q01DX001 (ip), vehicle: saline with Tween-80
[4] = T/C endpoint: median tumor weight change, dose: 125.0 mg/kg/injection, schedule: Q01DX001 (ip), vehicle: saline with Tween-80
[5] = T/C endpoint: median tumor weight change, dose: 2000.0 mg/kg/injection, schedule: Q01DX001 (ip), vehicle: saline with Tween-80

NC(C(=O)O)c1ccc(CBr)cc1 (stereo not drawn)
T/C (T/C endpoint: median tumor weight change, dose: 62.5 mg/kg/injection, schedule: Q01DX001 (ip), vehicle: saline with Tween-80, evaluated on day 37): 134 % of control [9 of 10 alive on day 37]
survivor count [1]: 4 of 10 on day 37
survivor count [2]: 0 of 10 on day 37
survivor count [3]: 0 of 10 on day 37

COC1C(C)OC(OC2CC(C)(O)Cc3cc4c(c(O)c32)C(=O)c2c(O)cc3c(c2C4=O)OC2OC3(C)C(O)C(N(C)C)C2O)C(OC)C1(C)OC (stereo not drawn)
T/C (T/C endpoint: median tumor weight (est.), dose: 1.25 mg/kg/injection, schedule: Q07DX005 (ip), vehicle: other, evaluated on day 32): 127 % of control

Cc1cc(=O)n2c3c(c4c(cc13)c(CN(C)C)cc(=O)n4C)OC2
survivor count [4]: 5 of 10 on day 26
survivor count [1]: 0 of 10 on day 26
survivor count [2]: 0 of 10 on day 26

COc1ccc(/C=C/C(=O)c2cc(C(=O)O)c(OC)cc2OC)cc1OC
survivor count (T/C endpoint: median tumor weight (est.), dose: 400.0 mg/kg/injection, schedule: Q07DX005 (ip), vehicle: saline): 0 of 10 on day 30

CCCNC1=C(C)C(=O)C2=C(C1=O)[C@H](COC(N)=O)[C@]1(OC)[C@@H]3N[C@@H]3CN21
survivor count (T/C endpoint: median tumor weight change, dose: 30.0 mg/kg/injection, schedule: Q01DX001 (ip), vehicle: saline): 0 of 10 on day 33
survivor count (T/C endpoint: median tumor weight change, dose: 60.0 mg/kg/injection, schedule: Q01DX001 (ip), vehicle: saline): 0 of 10 on day 33

CCC/C=C/C=C/C(=O)OC1/C(=C/C(=O)OC)CC2CC(C(C)O)OC(=O)CC(O)CC3CC(OC(C)=O)C(C)(C)C(O)(CC4C/C(=C/C(=O)OC)CC(/C=C/C(C)(C)C1(O)O2)O4)O3 (stereo not drawn)
survivor count (T/C endpoint: median tumor weight change, dose: 0.19 mg/kg/injection, schedule: Q01DX001 (ip), vehicle: saline + alcohol): 6 of 10 on day 35
survivor count (T/C endpoint: median tumor weight change, dose: 0.38 mg/kg/injection, schedule: Q01DX001 (ip), vehicle: saline + alcohol): 0 of 10 on day 35
survivor count (T/C endpoint: median tumor weight change, dose: 0.75 mg/kg/injection, schedule: Q01DX001 (ip), vehicle: saline + alcohol): 0 of 10 on day 35
survivor count (T/C endpoint: median tumor weight change, dose: 1.5 mg/kg/injection, schedule: Q01DX001 (ip), vehicle: saline + alcohol): 0 of 10 on day 35

CCOC(=O)c1[nH]c2cccc3c2c1CC(Br)C3=O (stereo not drawn)
survivor count [2]: 4 of 10 on day 31
survivor count [3]: 3 of 10 on day 31
survivor count [5]: 0 of 10 on day 31

CNc1n[n+](-c2ccccc2)no1
T/C (T/C endpoint: mean tumor weight, dose: 6.25 mg/kg/injection, schedule: Q07DX006 (ip), vehicle: saline, evaluated on day 41): 133 % of control
T/C (T/C endpoint: median tumor weight (est.), dose: 3.12 mg/kg/injection, schedule: Q07DX005 (ip), vehicle: saline, evaluated on day 30): 135 % of control [9 of 10 alive]

COCC(O)Cn1ccnc1[N+](=O)[O-] (stereo not drawn)
T/C (T/C endpoint: median tumor weight (est.), dose: 32.0 mg/kg/injection, schedule: Q07DX005 (ip), vehicle: Klucel (hydroxypropylcellulose) (HPC), evaluated on day 30): 143 % of control

CC(C)(C)N1CC1CNC(=O)C(=O)NCC1CN1C(C)(C)C (stereo not drawn)
T/C (T/C endpoint: median tumor weight change, dose: 7.81 mg/kg/injection, schedule: Q01DX001 (ip), vehicle: saline with Tween-80, evaluated on day 34): 140 % of control
survivor count (T/C endpoint: median tumor weight change, dose: 62.5 mg/kg/injection, schedule: Q01DX001 (ip), vehicle: saline with Tween-80): 4 of 10 on day 26 and 5 of 10 on day 34
survivor count [4]: 0 of 10 on day 26 and 0 of 10 on day 34
survivor count [1]: 0 of 10 on day 26 and 0 of 10 on day 34

NC1=NC(=O)N2CC12 (stereo not drawn)
survivor count (T/C endpoint: median tumor weight change, dose: 500.0 mg/kg/injection, schedule: Q01DX001 (ip), vehicle: saline): 1 of 10 on day 28
survivor count (T/C endpoint: median tumor weight change, dose: 1000.0 mg/kg/injection, schedule: Q01DX001 (ip), vehicle: saline): 0 of 10 on day 28
survivor count (T/C endpoint: median tumor weight change, dose: 2000.0 mg/kg/injection, schedule: Q01DX001 (ip), vehicle: saline): 0 of 9 on day 28

N=c1c(C(=O)OCc2ccccc2)ncc(CCl)n1O
survivor count [5]: 2 of 10 on day 25 and 2 of 10 on day 38

Cn1c2nc(=O)n(-c3ccccc3)c(=O)c-2nc2c1CCCC2
survivor count (T/C endpoint: median tumor weight (est.), dose: 200.0 mg/kg/injection, schedule: Q07DX005 (ip), vehicle: saline with Tween-80): 4 of 10 on day 30
survivor count (T/C endpoint: median tumor weight (est.), dose: 400.0 mg/kg/injection, schedule: Q07DX005 (ip), vehicle: saline with Tween-80): 0 of 10 on day 30

Nc1nc2ccc(NCc3ccc(C(=O)NC(CCC(=O)O)C(=O)O)cc3)cc2c(=O)[nH]1 (stereo not drawn)
T/C (T/C endpoint: median tumor weight change, dose: 50.0 mg/kg/injection, schedule: Q01DX001 (ip), vehicle: saline with Tween-80, evaluated on day 28): 126 % of control
survivor count (T/C endpoint: median tumor weight change, dose: 200.0 mg/kg/injection, schedule: Q01DX001 (ip), vehicle: saline with Tween-80): 5 of 10 on day 28

COc1ccc2c(c1[N+](=O)[O-])CC[C@@H]1[C@@H]2CC[C@]2(C)C(=O)CC[C@@H]12
T/C (T/C endpoint: median tumor weight change, dose: 125.0 mg/kg/injection, schedule: Q01DX001 (ip), vehicle: saline with Tween-80, evaluated on day 30): 147 % of control
T/C (T/C endpoint: median tumor weight change, dose: 1000.0 mg/kg/injection, schedule: Q01DX001 (ip), vehicle: saline with Tween-80, evaluated on day 30): 126 % of control [8 of 10 alive on day 30]

CC1(C)N=C(N)N=C(N)N1c1ccc(F)c(C(F)(F)F)c1
T/C (T/C endpoint: median tumor weight (est.), dose: 6.25 mg/kg/injection, schedule: Q07DX005 (ip), vehicle: saline, evaluated on day 35): 134 % of control
survivor count (T/C endpoint: median tumor weight (est.), dose: 100.0 mg/kg/injection, schedule: Q07DX005 (ip), vehicle: saline): 2 of 10

Cc1c(N)nc(C(CC(N)=O)NCC(N)C(N)=O)nc1C(=O)NC(C(=O)NC(C)C(O)C(C)C(=O)NC(C(=O)NCCc1nc(-c2nc(C(=O)NCCCNCCCc3ccccn3)cs2)cs1)C(C)O)C(OC1OC(CO)C(O)C(O)C1OC1OC(CO)C(O)C(OC(N)=O)C1O)c1cnc[nH]1 (stereo not drawn)
T/C (T/C endpoint: median tumor weight (est.), dose: 3.0 mg/kg/injection, schedule: Q07DX005 (ip), vehicle: water, evaluated on day 30): 127 % of control

COc1cc2c(cc1O)N=C[C@@H]1CCC(O)N1C2=O (mixture of isomers)
T/C (T/C endpoint: median tumor weight (est.), dose: 1.0 mg/kg/injection, schedule: Q07DX005 (ip), vehicle: saline, evaluated on day 30): 135 % of control
survivor count (T/C endpoint: median tumor weight (est.), dose: 16.0 mg/kg/injection, schedule: Q07DX005 (ip), vehicle: saline): 6 of 10 on day 30
survivor count (T/C endpoint: median tumor weight (est.), dose: 32.0 mg/kg/injection, schedule: Q07DX005 (ip), vehicle: saline): 0 of 10 on day 30

CCN(CC)CCN1C(=O)C2C3C=CC(C2C1=O)C1C2C(=O)N(CCN(CC)CC)C(=O)C2C31 (stereo not drawn)
survivor count (T/C endpoint: median tumor weight change, dose: 250.0 mg/kg/injection, schedule: Q01DX001 (ip), vehicle: water): 3 of 10 on day 29
survivor count (T/C endpoint: median tumor weight change, dose: 500.0 mg/kg/injection, schedule: Q01DX001 (ip), vehicle: water): 0 of 10 on day 29
